Results from publication PMC11109203.
No constants are given. Whether binding was seen depends on the method and setting. For part of these data: Binding seen in cells or lysates may run through a third protein. Some results given as binding are weak or reduced against the parent protein; the word gives no strength. For part of these data: Where a sequence is shown, tags or fusion partners need not be part of it.

Chains of the proteins cited; added tags and fusions are not shown. Lines headed by an entry give the natural chain unless they say otherwise; changes in a name come on top. A line that says so, or that is headed by a name, gives the form on record, which may keep a tag or linker.
UniProt Q09825: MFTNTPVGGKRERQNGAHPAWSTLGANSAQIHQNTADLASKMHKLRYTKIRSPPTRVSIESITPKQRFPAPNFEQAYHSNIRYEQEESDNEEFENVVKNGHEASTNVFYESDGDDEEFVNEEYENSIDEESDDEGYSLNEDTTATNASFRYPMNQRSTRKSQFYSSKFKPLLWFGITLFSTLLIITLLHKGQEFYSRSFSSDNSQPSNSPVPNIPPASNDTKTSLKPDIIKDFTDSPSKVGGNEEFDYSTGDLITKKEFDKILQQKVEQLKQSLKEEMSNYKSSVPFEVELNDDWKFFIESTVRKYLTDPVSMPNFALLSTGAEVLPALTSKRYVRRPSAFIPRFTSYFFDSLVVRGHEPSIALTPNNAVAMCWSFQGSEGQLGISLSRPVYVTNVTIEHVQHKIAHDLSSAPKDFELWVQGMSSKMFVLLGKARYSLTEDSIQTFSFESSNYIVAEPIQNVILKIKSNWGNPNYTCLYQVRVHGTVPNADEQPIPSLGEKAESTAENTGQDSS
Sad1_(1-169)-5R (Q09825, form named): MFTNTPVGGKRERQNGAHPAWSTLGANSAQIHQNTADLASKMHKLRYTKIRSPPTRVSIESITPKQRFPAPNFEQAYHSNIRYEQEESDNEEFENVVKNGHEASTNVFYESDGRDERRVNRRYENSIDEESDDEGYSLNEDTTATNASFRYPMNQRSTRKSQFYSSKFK

What was measured:
Bqt4-GFP (S. pombe) = target: T1, Bqt4-GFP (S. pombe) (UniProt O60158); assay: co-IP; S. pombe cell extracts of cells carrying Sad1-HA with Bqt4-GFP or Cnp20-TAP (controls, Supplementary Fig. 2)
T1 sequence: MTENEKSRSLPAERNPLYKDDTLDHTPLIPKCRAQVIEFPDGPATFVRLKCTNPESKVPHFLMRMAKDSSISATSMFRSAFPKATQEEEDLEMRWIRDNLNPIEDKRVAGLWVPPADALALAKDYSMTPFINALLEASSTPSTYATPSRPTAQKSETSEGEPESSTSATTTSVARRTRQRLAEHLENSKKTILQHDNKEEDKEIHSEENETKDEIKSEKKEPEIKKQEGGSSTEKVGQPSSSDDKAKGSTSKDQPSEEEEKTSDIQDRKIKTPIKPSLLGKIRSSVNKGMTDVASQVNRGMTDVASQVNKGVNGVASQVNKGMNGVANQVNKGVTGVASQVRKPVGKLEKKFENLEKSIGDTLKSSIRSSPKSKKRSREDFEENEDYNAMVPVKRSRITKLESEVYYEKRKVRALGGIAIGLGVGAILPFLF

Cnp20-TAP (S. pombe) = target: T2, Cnp20-TAP (S. pombe) (UniProt Q9HGK9); assay: as above
T2 sequence: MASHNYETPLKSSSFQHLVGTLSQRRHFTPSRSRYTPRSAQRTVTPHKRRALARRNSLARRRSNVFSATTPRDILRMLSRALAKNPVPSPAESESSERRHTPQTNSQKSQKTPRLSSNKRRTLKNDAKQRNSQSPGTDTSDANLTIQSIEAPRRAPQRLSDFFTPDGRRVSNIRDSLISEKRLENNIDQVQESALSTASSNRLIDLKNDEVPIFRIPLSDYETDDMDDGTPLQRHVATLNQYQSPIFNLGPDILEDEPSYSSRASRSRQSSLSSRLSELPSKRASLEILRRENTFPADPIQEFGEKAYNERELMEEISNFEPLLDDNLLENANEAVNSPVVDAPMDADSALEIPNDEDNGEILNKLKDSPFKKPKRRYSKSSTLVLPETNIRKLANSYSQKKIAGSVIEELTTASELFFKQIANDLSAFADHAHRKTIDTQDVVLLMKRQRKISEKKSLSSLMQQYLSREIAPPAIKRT

[1] = target: T3, FITC labeled Clr3 (S. pombe) (UniProt P56523); assay: MST; Monolith NT.115; 25 mM HEPES pH 7.5, 150 mM NaCl, 2 mM DTT; 20 nM FITC labeled Clr3; ligands (500 μM Sad1_(1-169) or 250 μM Sad1_(1-169)-H2AB complex) diluted by 12 gradients; medium MST power, 80% LED; both purified
T3 sequence (chain, FITC label): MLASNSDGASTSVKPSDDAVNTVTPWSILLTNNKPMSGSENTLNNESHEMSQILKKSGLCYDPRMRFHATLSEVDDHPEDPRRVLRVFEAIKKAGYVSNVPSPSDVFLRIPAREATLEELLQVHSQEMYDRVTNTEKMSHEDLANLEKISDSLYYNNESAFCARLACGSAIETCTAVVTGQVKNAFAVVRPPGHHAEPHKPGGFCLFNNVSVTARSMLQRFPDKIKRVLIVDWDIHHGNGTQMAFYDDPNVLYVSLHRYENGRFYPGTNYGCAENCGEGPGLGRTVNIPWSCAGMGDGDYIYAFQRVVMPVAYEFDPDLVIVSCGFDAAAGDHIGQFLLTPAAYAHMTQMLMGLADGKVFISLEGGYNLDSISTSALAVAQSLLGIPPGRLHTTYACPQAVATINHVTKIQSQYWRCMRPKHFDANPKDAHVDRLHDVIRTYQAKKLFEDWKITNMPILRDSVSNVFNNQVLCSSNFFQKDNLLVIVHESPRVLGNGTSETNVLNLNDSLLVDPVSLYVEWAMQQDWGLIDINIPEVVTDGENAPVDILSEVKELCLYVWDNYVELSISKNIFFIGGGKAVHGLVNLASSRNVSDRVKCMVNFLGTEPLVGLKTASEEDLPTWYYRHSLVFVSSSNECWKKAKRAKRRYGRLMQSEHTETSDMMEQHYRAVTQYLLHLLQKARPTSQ

binding (Bqt4-GFP (S. pombe))	binding (Cnp20-TAP (S. pombe))	binding [1]	Substance
binds	no binding	–	Sad1-HA (from UniProt Q09825 1-514)
–	–	binds	Sad1_(1-169)-5R (from UniProt Q09825 1-169) (domain or fragment)
